The target in the experiment is SFB-LCN2 (lipocalin-2 with SFB tag) (human) (UniProt P80188). The experiment in a line: affinity purification with mass spectrometry; LCN2 precipitated from lysate of the stable SFB-LCN2 CAL-27 cell line (S-protein agarose beads for SFB-LCN2; the methods also say proteins immunoprecipitated with anti-LCN2 antibody were digested); silver staining; peptides analysed by mass spectrometry.

Chains of the proteins cited; added tags and fusions are not shown. Residues count along the entry.
UniProt P80188, residues 21-198: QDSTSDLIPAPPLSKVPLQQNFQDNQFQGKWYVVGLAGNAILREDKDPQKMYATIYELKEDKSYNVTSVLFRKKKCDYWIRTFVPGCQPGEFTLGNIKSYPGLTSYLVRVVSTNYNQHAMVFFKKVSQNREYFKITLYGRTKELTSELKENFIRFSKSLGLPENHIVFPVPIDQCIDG

These are yes or no findings as the source states them, for the method shown. Binding seen in cells or lysates may run through a third protein. These calls come from enrichment with a bait or labelling near it, and not all partners need be listed.

As to “Epidermal growth factor receptor (EGFR) (from UniProt P00533 25-1210)”, the binding result is reported as “binds”.
